At least one compound was matched to its structure with a doubt left.
Tested on: HLA-A*02:01 transgenic mouse
Test: In vivo adjuvant activity, CTL induction with vaccine b, IFNγ ELISPOT (Test 17)
Conditions: 0.04 nmol or 0.4 nmol per body added to vaccine b versus no compound; twice
Protocol: The in vivo adjuvant activity of the compounds prepared in Examples 7, 8, and 9 was evaluated in the following procedure. To vaccine b comprising Compound of formula 4 prepared in Reference example 9 and Peptide SEQ ID No. 3 prepared in Reference example 3 with Montanide ISA51 VG was added the compound prepared in Example 7, 8, or 9 to prepare each vaccine. The vaccine was administered to a HLA-A*02:01 transgenic mouse, and the adjuvant activity of each vaccine was evaluated by the method of testing antigen-specific CTL induction.
Specifically, Compound of formula 4 and Peptide SEQ ID No. 3 were dissolved in DMSO, and then diluted with water for injection to concentrations of Compound of formula 4 of 3 mg/mL and Peptide SEQ ID No. 3 of 2.25 mg/mL. The diluted peptide solution was mixed and emulsified with an equal volume of Montanide ISA 51 VG to prepare vaccine b. Vaccine b was injected to mice intradermally at the tail base area in an amount for administering 300 μg of Compound of formula 4 per body and 225 μg of Peptide SEQ ID No. 3 per body. […] Then, after removal of the supernatant from the wells, stained spots on the ELISPOT plate were counted.

CCCCOc1nc(N)c2[nH]c(=O)n(Cc3ccc(CN(C)CCOCCOCCOCCOCCOCCOCCOCCOCCOCCOCCOCCOCCOCCOCCOCCOCCOCCOCCOCCOCCOCCOCCOCCOCCOCCOCCOCCOCCOCCOCCOCCOCCOCCOCCOCCO)nc3)c2n1 [Example 9, 6-Amino-2-butoxy-9-{[6-(109-hydroxy-2-methyl-5,8,11,14,17,20,23,26,29,32,35,38,41,44,47,50,53,56,59,62,65, 68,71,74,77,80,83,86,89,92,95,98,101,104,107-pentatriacontaoxa-2-azanonahectan-1-yl)pyridin-3-yl]methyl}-7,9-dihydro-8H-purin-8-one]
CTL counts responsive to Peptide SEQ ID No. 5: more

Reference: patent publication US20220241409A1, “WATER SOLUBLE ADJUVANT AND COMPOSITION CONTAINING SAME” (Sumitomo Dainippon Pharma Co., Ltd., priority 2019, published 2022)
